Results on 2 substances are retold here after patent US7488592.

By UniProt entry, the sequences of proteins in these tests, tags left out. Where a name states a change or a piece, a line headed by the entry shows the natural chain unless it says otherwise.
UniProt Q7Z5G4: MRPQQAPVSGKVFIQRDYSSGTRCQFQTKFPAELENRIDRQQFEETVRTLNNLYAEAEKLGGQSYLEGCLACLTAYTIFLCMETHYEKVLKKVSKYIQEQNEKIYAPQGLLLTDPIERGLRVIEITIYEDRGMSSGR
UniProt Q9Y397: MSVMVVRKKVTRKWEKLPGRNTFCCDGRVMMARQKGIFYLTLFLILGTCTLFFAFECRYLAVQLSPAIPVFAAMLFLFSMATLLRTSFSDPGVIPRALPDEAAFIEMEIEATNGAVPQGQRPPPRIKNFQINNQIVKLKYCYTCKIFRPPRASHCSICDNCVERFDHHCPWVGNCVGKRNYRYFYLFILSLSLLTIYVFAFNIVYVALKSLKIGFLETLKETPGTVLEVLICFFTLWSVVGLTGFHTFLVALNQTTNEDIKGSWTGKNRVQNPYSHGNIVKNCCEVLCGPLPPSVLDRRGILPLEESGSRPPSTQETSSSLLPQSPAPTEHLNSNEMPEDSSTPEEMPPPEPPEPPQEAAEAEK

The target in assay [1] is Flag-hErf4 (hE4-1) (human) (UniProt Q7Z5G4). In words: co-immunoprecipitation from HEK-293 whole cell extracts, reciprocal anti-GFP and anti-Flag IP and blots.
Assay [2] has the same target. The assay can be described thus: co-immunoprecipitation from HEK-293 cell extracts (anti-GFP or anti-Flag IP, immunoblot).
Assay [3] deals with GST-hErf4 (human). In words: sequential Ni and glutathione affinity chromatography from SF9 membrane extract, Coomassie gel and anti-myc/anti-GST blots.
The target in assay [4] is GST-hErf4 (human). The assay can be described thus: co-purification from insect cells (data not shown); complex then purified by metal chelate and glutathione agarose.

Results are given in words; binding and its absence hold for the method and conditions named. For some of these results: Binding seen in cells or lysates may run through a third protein. Some binding calls cover weakened binding; strength is not graded here.

With “hErf2-GFP (hE2-1/DHHC9) (from UniProt Q9Y397 1-364) (enzyme)”, the binding result in assay [1] and in assay [2] was “binds” throughout.
Turning to “hErf2-Myc-His (from UniProt Q9Y397 1-364) (enzyme)”, the binding result with GST-hErf4 (human) [3] and in the assay with GST-hErf4 (human) [4] was “binds” throughout.
